Reference: PubChem BioAssay AID540256 (National Center for Advancing Translational Sciences (NCATS), 2011)
The campaign covered roughly 300,000 compounds. About 3,700 (1.2%) were called active. This list was built around the results that the source calls inconclusive (neither active nor inactive); the mix of calls is not that of the screen. Calls come from the whole dose curve; tested in HEK293 cells. Potencies beside an inconclusive call are fits to weak or partial responses and may not hold up.

Test: qHTS for Inhibitors of binding or entry into cells for Lassa Virus; note: nearly all actives have a fitted effect of over 50% in size
Conditions: Lassa virus pseudotype entry inhibition, cell reporter; series mostly up to 37.9 µM
Potency is the fitted concentration of half-maximal effect.

| SMILES | Potency |
| --- | --- |
| Cc1[nH]c2ccc(C(=O)OC(C)C(=O)NCc3ccccc3)cc2c1C (stereo not drawn) | inconclusive: 0.562 µM [inhibitor, full curve] |
| Cc1onc(-c2ccccc2)c1CNC(=O)Nc1ccccc1 | inconclusive: 6.31 µM [inhibitor, partial curve, poor fit] |
| CCN1CCN(C(=O)c2ccc3c(c2)N(Cc2c(F)cccc2Cl)C(=O)c2ccccc2S3)CC1 | inactive |
| COc1ccc2[nH]c(C(=O)N3CCCN(Cc4ccc(F)cc4)CC3)cc2c1 | inconclusive: 11.2 µM [inhibitor, partial curve, poor fit] |
| Cc1csc(NC(=O)C2CCCCN2S(=O)(=O)c2ccccc2)n1 (stereo not drawn) | inactive |
| COC(=O)c1ccc(COc2ncnc3ccccc23)o1 | inactive |
| CC(=O)Nc1ccc(Nc2nc(-c3sc(NC(C)=O)nc3C)cs2)cc1 | inconclusive: 35.5 µM [inhibitor, single point] |
| CC(C)(C)c1cc2cccnc2n1Cc1cccc(F)c1 | inconclusive: 35.5 µM [inhibitor, single point] |
| CCOc1ccccc1CN1C(=O)c2ccccc2C1C(=O)NC1CCCCCC1 (stereo not drawn) | inconclusive: 12.6 µM [inhibitor, partial curve, poor fit] |
| COc1ccc(OCCn2cc(C(=O)c3ccco3)c3ccccc32)cc1 | inconclusive: 22.4 µM [inhibitor, single point] |
| CCn1c(C)c(/C=N/Nc2nc3ccccc3s2)c2ccccc21 | inconclusive: 29.1 µM [inhibitor, single point] |
| Fc1ccc(SCCc2ccncc2)cc1 | inactive |
| COc1cc2[nH]c(=S)n(NC(=O)CC(C)C)c(=O)c2cc1OC | inconclusive: 7.3 µM [activator, partial curve, poor fit] |
| Cc1ccc(-c2noc(CN(C3CCCCC3)S(=O)(=O)c3ccc(F)cc3)n2)cc1 | inactive |
| COc1ccc(C2N=C(c3ccccc3)C(C)(C)N2O)cc1OC (stereo not drawn) | inconclusive: 32.6 µM [inhibitor, single point] |
| CCOC(=O)C1CCCN(C(=O)Cn2ncc3c4ccccc4n(Cc4ccc(F)cc4)c3c2=O)C1 (stereo not drawn) | inconclusive: 6.31 µM [inhibitor, partial curve] |
| COc1ccc(OC)c(NC(=O)CCCSc2ccccc2)c1 | inactive |
| COc1ccc2c(c1OC)C(=O)N(c1ccc(O)cc1)C2=O | inactive |
| O=C(CN1CCN(c2ccccn2)CC1)Nc1ccccc1C(=O)Nc1ccccc1 | inconclusive: 17.8 µM [inhibitor, partial curve, poor fit] |
| Cc1ccc(C)c(-c2ccc(=O)n(Cc3ccc(F)cc3Cl)n2)c1 | inconclusive: 35.5 µM [inhibitor, single point] |
| COC(=O)c1ccccc1NC(=O)CSc1ncccn1 | inactive |
| COc1cc2c(cc1OC)C(COc1cc(C)cc(C)c1)N(C(=O)c1ccc(S(=O)(=O)N3CCCC3)cc1)CC2 (stereo not drawn) | inconclusive: 1.26 µM [inhibitor, full curve] |
| O=C(CSc1nc2c([nH]c3ccccc32)c(=O)n1-c1cccc(Cl)c1)NCc1ccccc1 | inconclusive: 8.91 µM [inhibitor, partial curve, poor fit] |

Laid out differently: results already given.
SMILES,Potency
CCOc1ccccc1CN1C(=O)c2ccccc2C1C(=O)NC1CCCCCC1 (stereo not drawn),"inconclusive: 12.6 µM [inhibitor, partial curve, poor fit]"
CCn1c(C)c(/C=N/Nc2nc3ccccc3s2)c2ccccc21,"inconclusive: 29.1 µM [inhibitor, single point]"
COc1ccc(C2N=C(c3ccccc3)C(C)(C)N2O)cc1OC (stereo not drawn),"inconclusive: 32.6 µM [inhibitor, single point]"

More results follow:

| SMILES | Potency |
| --- | --- |
| CP(=O)(O)C1=CCNCC1 | inconclusive: 0.0651 µM [inhibitor, full curve] |
| Cc1ccccc1-n1c(SCc2csc(Nc3ccccc3)n2)nnc1-c1cccnc1 | inactive |
| Cc1ccc(NC(=O)c2ccc3ccccc3n2)cc1S(=O)(=O)N(C)C | inconclusive: 12.6 µM [inhibitor, single point] |
| NNC(=O)CNC(c1ccccc1)c1cc(Br)ccc1NC(=O)c1ccc(Br)cc1 (stereo not drawn) | inconclusive: 0.562 µM [activator, single point] |
| CCCN(CCC)C(=O)CC(c1ccccc1)c1ccco1 (stereo not drawn) | inconclusive: 11.2 µM [inhibitor, partial curve, poor fit] |
| O=C(NCC(=O)N1CCCC(C(F)(F)F)C1)c1ccc2ccccc2c1 (stereo not drawn) | inactive |
| O=C(CCCCCn1c(=O)[nH]c2ccccc2c1=O)N1CCN(c2ccc(Cl)cc2)CC1 | inconclusive: 8.91 µM [inhibitor, partial curve, poor fit] |
| O=C(Nc1ccccc1)c1ccn[nH]1 | inactive |
| COc1ccc(-c2cnnc(N/N=C/c3ccc(OC)c(OC)c3)n2)cc1 | inconclusive: 2.51 µM [inhibitor, partial curve, poor fit] |
| O=C(O)c1cccnc1C(=O)c1ccccc1 | inactive |
| CCCCOC(=O)CSc1nc2c(cc1C#N)C(=O)CC(C)(C)C2 | inactive |
| O=S(=O)(NCC(c1ccco1)N1CCOCC1)c1ccc(Cl)cc1 (stereo not drawn) | inconclusive: 5.62 µM [inhibitor, single point] |
| Cc1cc(O)cc(O)c1C(=O)OC1(C)C(=O)C=C2C=C(C=CC(=O)O)OC=C2C1=O (stereo not drawn) | inconclusive: 1.33 µM [activator, single point] |
| COc1ccc(S(=O)(=O)N2CCC(C(=O)NCCN3CCOCC3)CC2)cc1C | inconclusive: 3.16 µM [inhibitor, single point] |
| O=C(NCCc1c[nH]c2ccccc12)C1CCN(S(=O)(=O)c2ccc(F)cc2)CC1 | inconclusive: 12.6 µM [inhibitor, partial curve, poor fit] |
| CCc1ccc(NC(=O)C2CCCN(S(=O)(=O)c3cccc4cccnc34)C2)cc1 (stereo not drawn) | inconclusive: 6.31 µM [inhibitor, full curve, poor fit] |
| Cc1cc(C)c2c(C)nn(-c3ccccc3)c2n1 | inactive |
| COc1c(Cl)cnn(-c2ccccc2)c1=O | inconclusive: 35.5 µM [inhibitor, partial curve, poor fit] |
| COc1ccc(NC(=O)N2CCCc3ccccc32)cc1 | inconclusive: 29.1 µM [activator, single point] |
| O=C(CNC1CCCCC1)NN=C(c1ccccc1)c1ccccc1 | inconclusive: 1 µM [inhibitor, single point] |
| CCOC(=O)c1c(CSc2ccc(CC)cc2)oc2ccc(O)c(CN(C)C)c12 | inconclusive: 35.5 µM [inhibitor, single point] |
| CCN(CC)c1ccc(C(=O)Nc2ccc3nc(N(CC)CC)cc(C)c3c2)cc1 | inconclusive: 35.5 µM [inhibitor, single point] |
| O=C(COc1ccccc1)Nc1ccc(OC(F)(F)C(F)F)c(NC(=O)COc2ccccc2)c1 | inconclusive: 3.66 µM [inhibitor, single point] |

| SMILES | Potency |
| --- | --- |
| NS(=O)(=O)c1ccc(CCNC(=O)c2ccc[nH]c2=S)cc1 | inconclusive: 1.26 µM [inhibitor, partial curve, poor fit] |
| CCCCSc1nc(O)c(C2OC(=O)c3c2ccc(OC)c3OC)c(=O)n1-c1ccccc1 (stereo not drawn) | inactive |
| Cc1ccccc1CNC(=O)c1cc(COc2ccc(F)cc2F)on1 | inconclusive: 32.6 µM [inhibitor, single point] |
| O=C(CSc1n[nH]c(-c2cccs2)n1)NCc1ccc2c(c1)OCO2 | inactive |
| Cc1ccc(C(=O)N/C(=C\c2ccc(C(C)C)cc2)C(=O)NCCCN2CCOCC2)cc1 | inconclusive: 7.94 µM [inhibitor, partial curve, poor fit] |
| Cc1ccc(S(=O)(=O)NCCC(=O)OCC(=O)N(C)c2ccccc2)cc1 | inactive |
| CCN(CC)c1ccc(/C=N/NC(=O)CC(C)C)cc1 | inconclusive: 22.4 µM [inhibitor, single point] |
| C/C(=N\OC(=O)c1c(-c2ccccc2Cl)noc1C)c1ccncc1 | inconclusive: 35.5 µM [inhibitor, single point] |
| CC(C)c1nnc(NC(=O)Cc2ccc(Br)cc2)s1 | inconclusive: 0.164 µM [inhibitor, full curve, poor fit] |
| COc1ccc(N(CC(=O)Nc2ccccc2C(=O)NCCc2ccccc2)S(C)(=O)=O)cc1OC | inactive |
| CC(C)Cc1ccc(C(C)C(N)=NCCc2ccccc2)cc1 (stereo not drawn) | inconclusive: 35.5 µM [inhibitor, single point] |
| Cc1cccc(C)c1NC(=O)CN(C)C(=O)c1cccc(S(=O)(=O)N2CCN(c3ccc(F)cc3)CC2)c1 | inconclusive: 17.8 µM [inhibitor, single point] |
| Cc1ccc(/C=C2/C(=O)c3ccc(C(=O)O)cc3C2=O)o1 | inconclusive: 35.5 µM [inhibitor, single point] |
| COc1ccc(/C=N/NC(=O)c2ccc(COCC(F)(F)C(F)F)cc2)cc1 | inconclusive: 5.8 µM [inhibitor, full curve] |
| Cc1ccc(-n2nnc(-c3nsc(NC(=O)c4ccc(C)c(C)c4)n3)c2C)cc1 | inconclusive: 35.5 µM [activator, single point] |
| COc1cc2ncnc(NCc3ccc(F)cc3)c2cc1OC | inconclusive: 20 µM [inhibitor, single point] |
| O=C1OCC2=C1C(c1ccc3c(c1)OCO3)c1cc3c(cc1O2)OCO3 (stereo not drawn) | inconclusive: 0.631 µM [inhibitor, partial curve, poor fit] |
| CC1CC(C)CN(C/C=C/c2ccccc2[N+](=O)[O-])C1 (stereo not drawn) | inconclusive: 32.6 µM [inhibitor, single point] |
| CC(=NC1CCCCC1)C1=C(O)c2ccccc2C1=O | inconclusive: 1.46 µM [activator, full curve, poor fit] |
| O=C(N/N=C/c1cccc(F)c1)c1csc2c1CCCC2 | inconclusive: 35.5 µM [inhibitor, single point] |
| Clc1ccc(-c2nn3c(-c4ccccc4)nnc3s2)cc1 | inactive |
| CN(C)CC1CCC/C(=C/c2ccc(Cl)cc2)C1=O (stereo not drawn) | inconclusive: 6.31 µM [inhibitor, single point] |
